Reference: US8067651B2, “1-alkyl-5-oxopyrrolidine-3-carboxylic esters with improved biodegradability” (Clariant Finance (BVI) Limited, priority 2007, dated 2011)

How the values were obtained:
[1] = Kinetic gas hydrate inhibition in stirred steel autoclave; conditions: 5000 ppm based on the water phase, 50 bar natural gas, distilled water and gas 20:80; for Tagg (h), time until the torque rises: 4° C.
[2] = Agglomerate inhibition (antiagglomerant) test in autoclave with water and white spirit; conditions: 5000 ppm based on the water phase; water and white spirit 1:2; 50 bar; 500 rpm

Compound | Tind (h), time from attainment of 4° C. until first gas absorption [1] | Tagg (h), time until the torque rises [1] | Mmax (Ncm), torque on the stirrer [2] | Tagg (h), agglomeration time until occurrence of gas hydrate agglomerates [2]
CN1CC(C(=O)OCCOCCOCCOC(=O)C2CC(=O)N(C)C2)CC1=O (stereo not drawn) [Example 1, triethylene glycol di(1-methyl-5-oxopyrrolidine-3-carboxylate)] | 12.4 h | 12.5 h | – | –
CC(C)CN1CC(C(=O)OCCOCCOCCOC(=O)C2CC(=O)N(CC(C)C)C2)CC1=O (stereo not drawn) [Example 8, triethylene glycol di(1-isobutyl-5-oxopyrrolidine-3-carboxylate)] | 20.9 h | 22.1 h | – | –
CCCCCCCC/C=C\CCCCCCCCN1CC(C(=O)OCCOCCOCCOC(=O)C2CC(=O)N(CCCCCCCC/C=C\CCCCCCCC)C2)CC1=O (stereo not drawn) [Example 15, triethylene glycol di(1-oleyl-5-oxopyrrolidine-3-carboxylate)] | – | – | 1.6 Ncm | 4.1 h
